Experimental data from patent publication US20120308562A1, “METHODS OF TREATING MESOTHELIOMA WITH A PI3K INHIBITOR COMPOUND” (priority 2011, published 2012).
At least one structure is not confirmed: it was looked up by name or label, or the drawing left a doubt.

Legend:
[1] = tested on: receptor screening assay (n=68); assay: receptor screening assay; format: binding; details: GDC-0980=10 microM
[2] = tested on: PC3 PTEN-prostate xenograft; assay: PC3 PTEN- prostate xenograft model; format: in vivo; details: 25 to 150 mg/kg qd po; mouse PC3 PTEN- prostate
[3] = tested on: MCF7.1 E545K breast xenograft; assay: MCF7.1 E545K breast xenograft model; format: in vivo, mouse; details: 25 to 150 mg/kg qd po
MDA-MB-361.1 xenografts = assay: nonclinical PK/PD model of tumor growth inhibition with predicted human PK; details: MLP allometric scaling
Text: A nonclinical PK/PD model of tumor growth inhibition was developed using the indirect response model (Jusko W J. “Pharmacodynamics of chemotherapeutic effects: dose-time-response relationships for phase-nonspecific agents”, J Pharm Sci (1971) 60:892-5) to fit exposure and growth inhibition data based on four sets of experiments examining varying schedules and doses in the MDA-MB-361.1 xenografts. The PK/PD model was then used to predict minimal exposure needed to achieve 50% tumor growth inhibition, using the predicted human PK data and the nonclinical PD data. […] On the basis of MLP allometric scaling, a daily dose of approximately 18 mg may achieve this exposure. Dose escalation will continue until the MTD, even if 1.7 μM·hr exposure is surpassed and well tolerated, since it is well established that tumor xenograft models are not absolutely predictive of clinical response (Sausville and Burger 2006).

tumor 18FDG uptake = assay: Phase I 18FDG-PET response; format: in vivo, human
mesothelioma = assay: Phase I tumor response by RECIST, mesothelioma patients; details: for change in target lesions by RECIST: pleural mesothelioma, end of Cycle 1, amount preliminary
adrenal cortical cancer = assay: Phase I tumor response by RECIST, adrenal cortical cancer patient; details: a patient with adrenal cortical cancer
solid tumors = assay: Phase I best RECIST response and time on study, all enrolled patients

In the case of `Cc1c(CN2CCN(C(=O)[C@H](C)O)CC2)sc2c(N3CCOCC3)nc(-c3cnc(N)nc3)nc12` [GDC-0980, (S)-1-(4-((2-(2-aminopyrimidin-5-yl)-7-methyl-4-morpholinothieno[3,2-d]pyrimidin-6-yl)methyl)piperazin-1-yl)-2-hydroxypropan-1-one], the “responses in receptor screening assay” value [1] is reported as “did not elicit significant responses”, the “efficacy in xenograft model” value [2] is reported as “efficacious” and the “efficacy in xenograft model” value [3] is reported as “efficacious”. The “daily dose that may achieve the 1.7 μM·hr exposure” value (MDA-MB-361.1 xenografts) was “approximately 18 mg”, the “decrease in FDG avidity by PET” value (tumor 18FDG uptake; five of six patients with evaluable 18FDG-PET scans, Cycle 1 or Cycle 2) was 25% and the “Mean % Change from Baseline in SUVmax in Best 18FDG-PET Response” value (tumor 18FDG uptake; neuro-endocrine, giant cell sarcoma, GIST patients, 36 to 299 days, 16 to 70 mg daily) was “positive responses”. The “time currently on study” value (mesothelioma; person, peritoneal mesothelioma, 32 mg QD, 21/28) was 1 year 3 months, the “change in target lesions by RECIST” value (mesothelioma; person, 40 mg QD, 28/28 day schedule) was “decrease in target lesions” and the “change in target lesions by RECIST” value (mesothelioma; person, 50 mg QD, 21/28 day schedule) was “decrease in target lesions”. The “tumor shrinkage by RECIST” value (mesothelioma; three patients with mesothelioma) was “significant tumor shrinkage”, the “tumor shrinkage by RECIST” value (adrenal cortical cancer) was “significant tumor shrinkage” and the “best RECIST response by evaluable patient” value (solid tumors; RCC, GIST, NSCL, adrenal, thyroid, cervical, breast, CRC, epithelial/epitheloid/peritoneal mesothelioma, adrenal cortical) was “Negative change from baseline in target lesions”. The “number of patients on study for at least 6 months” value (solid tumors; of the 42 enrolled patients) was “six”.
